Reference: patent US20220364110A1
No constants are given. Whether binding was seen depends on the method and setting. Some results given as binding are weak or reduced against the parent protein; the word gives no strength.

Sequences of proteins named here, by UniProt entry; tags and fusion partners are left off. Residues count along the entry.
UniProt P06127, residues 25-372: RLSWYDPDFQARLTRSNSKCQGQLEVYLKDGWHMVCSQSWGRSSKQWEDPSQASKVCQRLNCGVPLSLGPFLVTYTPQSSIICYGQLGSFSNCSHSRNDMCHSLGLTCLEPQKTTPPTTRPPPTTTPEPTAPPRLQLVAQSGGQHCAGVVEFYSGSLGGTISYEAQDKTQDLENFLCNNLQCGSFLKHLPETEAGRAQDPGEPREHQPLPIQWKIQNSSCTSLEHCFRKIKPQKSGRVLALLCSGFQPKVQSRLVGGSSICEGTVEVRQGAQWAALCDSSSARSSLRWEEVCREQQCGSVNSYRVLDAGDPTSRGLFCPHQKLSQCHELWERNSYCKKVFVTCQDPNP

How the values were obtained:
[1] = molecular target: Alexa647-conjugated CD5 protein (UniProt P06127); assay: flow cytometry, labelled CD5 on transfected HEK293T cells
[2] = molecular target: Alexa647-conjugated CD5 protein (UniProt P06127); assay: flow cytometry, Alexa647-conjugated CD5 protein on transfected HEK293 cells

- binding [1]: binds
- binding [2]: binds
B1: CD5-FcR-PI3K chimeric receptor (ATAK receptor; CD5 binder chimeric antigen receptor) expressed from the LINE-1 plasmid CD5-intron-FCR-PI3K cargo (receptor)
chain: EIQLVQSGGGLVKPGGSVRISCAASGYTFTNYGMNWVRQAPGKGLEWMGWINTHTGEPTYADSFKGRFTFSLDDSKNTAYLQINSLRAEDTAVYFCTRRGYDWYFDVWGQGTTVTVSSGGGGSGGGGSGGGGSDIQMTQSPSSLSASVGDRVTITCRASQDINSYLSWFQQKPGKAPKTLIYRANRLESGVPSRFSGSGSGTDYTLTISSLQYEDFGIYYCQQYDESPWTFGGGTKLEIKSGGGGSGALSNSIMYFSHFVPVFLPAKPTTTPAPRPPTPAPTIASQPLSLRPEACRPAAGGAVHTRGLDIYIWAPLAGTCGVLLLSLVITLYCRRLKIQVRKAAITSYEKSDGVYTGLSTRNQETYETLKHEKPPQGSGSYEDMRGILYAAPQLRSIRGQPGPNHEEDADSYENM
